The campaign covered roughly 360,000 compounds. About 2,400 (0.67%) were called active. Inconclusive means that the source gave no clear call. Such entries were picked first, then a sample of the others.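 How the source made its calls: active means inhibition above about 55% (limit read from the data); inconclusive means no clear call, values can overlap the other calls; inactive means the rest.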
Experiment: LAMP-1 surface exposure blockers, TALL-104 cells – cell-based, flow cytometry, MLPCN library, primary screen (AID 651702)
Conditions: TALL-104 LAMP-1 surface exposure, cells stimulated with thapsigargin and PMA; at 10 µM, stronger effect = higher value

inhibition, active:
Cc1cccc(-c2nc3ccc(C(=O)NCCN4CCN(C)CC4)cc3nc2-c2cccc(C)c2)c1 57.4%
COc1ccc(NC(=O)CC2Nc3cccc4cccc(c34)NC2=O)cc1 (stereo unspecified) 60.8%

inhibition, inactive:
CC1CCCCC1NC(=O)CCn1ccc2cc(S(=O)(=O)N3CCCC3)ccc21 (stereo unspecified) 19.6%
Cc1ccc(Cc2c(C3CCCCC3)nc3ccc(Cl)cn23)cc1 -4.3%
CC(C)NC(=O)C1(C)CN(S(C)(=O)=O)CC(=O)N1CCc1ccccc1F (stereo unspecified) 1.6%
CCc1cc(SC#N)cc(CC)c1NC(=O)CCl 4.1%
Cc1ccc(C)c(N(C)S(=O)(=O)c2ccc3[nH]cc(C(=O)NCCN4CCOCC4)c(=O)c3c2)c1 -4.8%
COC(=O)c1cc2c(=O)c3ccccc3oc2nc1/C=C/N(C)C 3.6%

inhibition, inconclusive:
Cc1cc([N+](=O)[O-])ccc1NC(=O)Nc1ccccc1F
COc1ccc(CCNC(=O)Cc2ccc(C)cc2)cc1OC
Cc1cc(C)nc(SCC(=O)Nc2ccc(N3CCOCC3)c(Cl)c2)n1
COc1cccc(CN(C)C(=O)C23CC4CC(CC(C4)C2)C3)c1
Cc1nc(NCC(c2ccccc2)N(C)C)c2c(C)c(C)sc2n1 (stereo unspecified)
CCc1c(C)[nH]n(CCC#N)c1=O
COc1ccc(CC(=O)Nc2cccc(/C(C)=N/NC(=O)C3(C)CC3(Br)Br)c2)cc1 (stereo unspecified)
c1cnc2ccc(C(c3nnnn3C3CCCC3)N3CCN(c4nc5ccccc5s4)CC3)cc2c1 (stereo unspecified)
COc1cc(NS(=O)(=O)c2ccc(N/C=C\C(=O)c3ccc(OC)c(OC)c3)cc2)nc(OC)n1
Cc1cc(OCC(=O)NC2CCN(Cc3ccccc3)CC2)c2c(C)cc(=O)oc2c1
O=C(CCCNS(=O)(=O)c1ccc(Br)cc1)N1CC[C@@]2(O)CCCC[C@H]2C1
CCOC(=O)CC(NC(=O)CCc1c(C)nc2ncnn2c1C)c1ccc(C)cc1 (stereo unspecified)
COc1ccc(CCNC(=O)CCNS(=O)(=O)c2cc(Br)cnc2N)cc1OC
COc1ccc(NS(=O)(=O)c2cccc(NC(=O)C34CCC(CC3)C4)c2)cc1
Cc1sc2ncnc(N3CCN(C(=O)c4ccco4)CC3)c2c1C
CCc1nnc(NS(=O)(=O)c2ccc(NC(=O)c3cccc4ccccc34)cc2)s1
Cc1ccc(Nc2nc3ccccc3n3cnnc23)cc1Cl
O=C(NCC1CCCO1)c1cc(-c2ccccc2)nc2ccc(Br)cc12 (stereo unspecified)

2 records picked at random from the list so far:
inhibition, inconclusive:
CCOC(=O)CC(NC(=O)CCc1c(C)nc2ncnn2c1C)c1ccc(C)cc1 (stereo unspecified)
c1cnc2ccc(C(c3nnnn3C3CCCC3)N3CCN(c4nc5ccccc5s4)CC3)cc2c1 (stereo unspecified)

Source: PubChem BioAssay AID651702 (NMMLSC, 2012)
